Measurements taken from patent publication US20110038790A1.
No constants are given. Whether binding was seen depends on the method and setting. Some entries that bind do so weakly or less than the wild type.

How the values were obtained:
Test in all cases: competition ELISA
[1] = target: murine monoclonal antibody 2A4
[2] = target: murine monoclonal antibody 7D8
[3] = target: murine monoclonal antibody 8G9

Measured: binding

B1: human AA amyloid (renal AA amyloid extract or tissue deposits) (protein, UniProt P0DJI8 19-94, looked up)
chain: RSFFSFLGEAFDGARDMWRAYSDMREANYIGSDKYFHARGNYDAAKRGPGGAWAAEVITDARENIQRFFGHGAEDS
binds: all assays above

B2: murine AA amyloid (AA fibrils, amyloid enhancing factor extract or tissue deposits) (protein, mouse, UniProt P05367 20-94, looked up)
chain: GFFSFIGEAFQGAGDMWRAYTDMKEAGWKDGDKYFHARGNYDAAQRGPGGVWAAEKISDARESFQEFFGRGHEDT
binds: all assays above
